In US4725577A, “Biologically active lysine containing octapeptides” (Administrators of the Tulane Educational Fund, priority 1986, dated 1988):
Not every detail of the peptide structures is certain; ends, links or a residue may be inferred.

System: Dunn osteosarcomas
Test: Dunn osteosarcoma model in C3H mice
Assay type: in vivo
Conditions: 5 μg/day

CC(=O)N[C@H](Cc1ccc(Cl)cc1)C(=O)N[C@H]1CSSC[C@@H](C(=O)N[C@H](C(N)=O)[C@@H](C)O)NC(=O)[C@H]([C@@H](C)O)NC(=O)[C@H](CCCCN)NC(=O)[C@@H](Cc2c[nH]c3ccccc23)NC(=O)[C@H](Cc2ccccc2)NC1=O [RC-15]
survival of mice with Dunn osteosarcomas: significantly prolong the survival
